Paper PMC4682425
These are yes or no findings as the source states them, for the method shown. Binding can be weak; no strength is given. For some of these results: Binding seen in cells or lysates may run through a third protein. One block for each binder: values may come before it.

Tests used:
[1] = target: OsCYP19-4 mature protein (amino acids 29-208), yeast two-hybrid bait (Oryza sativa ssp. japonica); assay: two-hybrid; pGBK7 constructs (CYPs) and pGADT7 constructs (AtRCN1, AtGNOM-F, AtGNOM-N) co-transformed in yeast AH109; growth on SD/-WLH + 1.5 mM 3-AT; empty pGADT7 as negative control
[2] = target: OsCYP20-1 mature protein (amino acids 40-220), yeast two-hybrid bait (Oryza sativa); assay: as above
[3] = target: OsCYP19-4 full length, BiFC construct in pSPYNE-35S (Oryza sativa ssp. japonica); assay: split reporter; BiFC: CYPs in pSPYNE-35S and AtRCN1 in pSPYCE-35S co-infiltrated with the P19 silencing suppressor into 4-week-old N. benthamiana leaves; yellow fluorescent protein fluorescence at 24-48 h post-infiltration, confocal microscopy
[4] = target: OsCYP20-1 full length, BiFC construct in pSPYNE-35S (Oryza sativa); assay: as above

- binding [1]: binds
- binding [2]: binds
B1: AtRCN1 full-length coding region, yeast two-hybrid prey (protein, UniProt Q38845 1-588)
chain: MAMVDEPLYPIAVLIDELKNDDIQLRLNSIRRLSTIARALGEERTRKELIPFLSENSDDDDEVLLAMAEELGVFIPFVGGIEFAHVLLPPLESLCTVEETCVREKAVESLCKIGSQMKENDLVESFVPLVKRLAGGEWFAARVSACGIFHVAYQGCTDVLKTELRATYSQLCKDDMPMVRRAAASNLGKFATTVESTFLIAEIMTMFDDLTKDDQDSVRLLAVEGCAALGKLLEPQDCVARILPVIVNFSQDKSWRVRYMVANQLYELCEAVGPDCTRTDLVPAYVRLLRDNEAEVRIAAAGKVTKFCRLLNPELAIQHILPCVKELSSDSSQHVRSALASVIMGMAPILGKDSTIEHLLPIFLSLLKDEFPDVRLNIISKLDQVNQVIGIDLLSQSLLPAIVELAEDRHWRVRLAIIEYVPLLASQLGIGFFDDKLGALCMQWLQDKVYSIREAAANNLKRLAEEFGPEWAMQHLVPQVLDMVNNPHYLHRMMVLRAISLMAPVMGSEITCSKFLPVVVEASKDRVPNIKFNVAKLLQSLIPIVDQSVVDKTIRQCLVDLSEDPDVDVRYFANQALNSIDGSTAAQS

- binding [3]: binds
- binding [4]: binds
B2: AtRCN1, BiFC construct in pSPYCE-35S (protein, UniProt Q38845 1-588)
chain: B1 chain
